From article PMC4236683
No constants are given. Whether binding was seen depends on the method and setting. Some entries that bind do so weakly or less than the wild type. Where a sequence is shown, tags or fusion partners need not be part of it.

Assays:
[1] = target: T1, endogenous Sema5A on mouse hippocampal (dentate gyrus) neurons (mouse (endogenous in primary hippocampal neurons)) (UniProt Q62217); assay: binding of AP-clustered Fc fusion protein to primary neurons; non-transfected primary mouse hippocampal neurons of WT and knock-out mice, Fc fusion protein preclustered with anti-human IgG-AP, NeuroBasal medium, NBT/BCIP; only the binder purified
T1 sequence: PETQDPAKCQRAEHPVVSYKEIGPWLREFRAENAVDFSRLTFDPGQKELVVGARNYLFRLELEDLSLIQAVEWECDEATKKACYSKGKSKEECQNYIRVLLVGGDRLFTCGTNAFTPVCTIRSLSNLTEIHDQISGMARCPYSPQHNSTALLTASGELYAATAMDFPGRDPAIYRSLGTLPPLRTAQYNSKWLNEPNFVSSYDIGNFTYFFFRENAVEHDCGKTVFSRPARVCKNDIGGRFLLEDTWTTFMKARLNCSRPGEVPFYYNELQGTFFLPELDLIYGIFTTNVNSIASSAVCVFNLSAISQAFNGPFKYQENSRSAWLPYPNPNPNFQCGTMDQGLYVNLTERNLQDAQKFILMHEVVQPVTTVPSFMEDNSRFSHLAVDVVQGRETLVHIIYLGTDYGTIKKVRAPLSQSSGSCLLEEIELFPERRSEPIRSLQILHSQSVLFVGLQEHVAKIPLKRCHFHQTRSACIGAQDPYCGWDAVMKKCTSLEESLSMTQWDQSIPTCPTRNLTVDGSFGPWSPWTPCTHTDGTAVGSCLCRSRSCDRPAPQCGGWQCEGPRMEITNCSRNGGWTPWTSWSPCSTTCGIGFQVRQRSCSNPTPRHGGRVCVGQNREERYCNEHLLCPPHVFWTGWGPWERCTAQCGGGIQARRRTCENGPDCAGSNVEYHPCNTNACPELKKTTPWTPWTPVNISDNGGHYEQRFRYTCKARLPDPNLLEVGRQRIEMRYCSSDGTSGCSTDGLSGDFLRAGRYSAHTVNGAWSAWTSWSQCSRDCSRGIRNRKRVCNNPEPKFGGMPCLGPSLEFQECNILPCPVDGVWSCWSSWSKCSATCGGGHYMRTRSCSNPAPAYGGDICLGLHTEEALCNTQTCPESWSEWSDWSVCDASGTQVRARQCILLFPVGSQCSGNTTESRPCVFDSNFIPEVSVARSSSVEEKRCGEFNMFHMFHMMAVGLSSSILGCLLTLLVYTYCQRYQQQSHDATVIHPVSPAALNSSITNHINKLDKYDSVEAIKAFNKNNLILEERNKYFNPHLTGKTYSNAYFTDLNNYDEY

Sema6A = target: T2, Sema6A (UniProt O35464); assay: binding of AP-clustered Fc fusion protein to transfected cells; COS7 cells transfected with PlexA or semaphorin constructs, incubated 75 min in OptiMEM with Fc fusion protein preclustered with anti-human IgG conjugated to alkaline phosphatase; rinsed, fixed, developed with NBT/BCIP; only the binder purified
T2 sequence: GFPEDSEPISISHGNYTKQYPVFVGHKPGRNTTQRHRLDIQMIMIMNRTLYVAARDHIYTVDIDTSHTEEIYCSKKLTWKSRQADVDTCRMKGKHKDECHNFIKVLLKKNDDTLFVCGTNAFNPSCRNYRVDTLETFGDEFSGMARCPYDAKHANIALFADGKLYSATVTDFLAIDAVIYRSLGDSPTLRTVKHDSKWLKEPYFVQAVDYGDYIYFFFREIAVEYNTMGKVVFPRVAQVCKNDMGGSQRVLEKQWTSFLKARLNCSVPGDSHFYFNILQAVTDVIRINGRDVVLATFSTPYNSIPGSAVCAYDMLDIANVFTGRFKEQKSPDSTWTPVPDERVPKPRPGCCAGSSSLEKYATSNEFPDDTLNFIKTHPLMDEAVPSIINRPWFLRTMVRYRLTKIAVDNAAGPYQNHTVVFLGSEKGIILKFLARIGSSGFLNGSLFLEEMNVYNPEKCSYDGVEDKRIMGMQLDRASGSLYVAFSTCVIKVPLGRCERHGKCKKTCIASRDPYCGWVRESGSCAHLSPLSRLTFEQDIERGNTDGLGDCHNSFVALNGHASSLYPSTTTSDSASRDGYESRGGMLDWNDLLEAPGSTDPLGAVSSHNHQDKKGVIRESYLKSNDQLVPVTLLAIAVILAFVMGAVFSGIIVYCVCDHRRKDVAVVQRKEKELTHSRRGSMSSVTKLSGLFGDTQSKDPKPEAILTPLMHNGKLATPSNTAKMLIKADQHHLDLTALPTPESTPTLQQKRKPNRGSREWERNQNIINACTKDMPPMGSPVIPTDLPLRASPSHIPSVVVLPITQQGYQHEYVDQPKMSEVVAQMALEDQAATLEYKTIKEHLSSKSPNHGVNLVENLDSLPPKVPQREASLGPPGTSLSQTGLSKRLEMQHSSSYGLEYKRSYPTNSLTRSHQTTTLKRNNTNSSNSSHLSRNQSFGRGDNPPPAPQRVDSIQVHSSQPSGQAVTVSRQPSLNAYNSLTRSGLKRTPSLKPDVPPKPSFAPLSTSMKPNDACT

[2] = target: T3, membrane-bound Sema5A lacking the seven TSRs (6xMyc-Sema5A^ΔTSR) (rat) (UniProt D3ZTD8); assay: as above
T3 sequence: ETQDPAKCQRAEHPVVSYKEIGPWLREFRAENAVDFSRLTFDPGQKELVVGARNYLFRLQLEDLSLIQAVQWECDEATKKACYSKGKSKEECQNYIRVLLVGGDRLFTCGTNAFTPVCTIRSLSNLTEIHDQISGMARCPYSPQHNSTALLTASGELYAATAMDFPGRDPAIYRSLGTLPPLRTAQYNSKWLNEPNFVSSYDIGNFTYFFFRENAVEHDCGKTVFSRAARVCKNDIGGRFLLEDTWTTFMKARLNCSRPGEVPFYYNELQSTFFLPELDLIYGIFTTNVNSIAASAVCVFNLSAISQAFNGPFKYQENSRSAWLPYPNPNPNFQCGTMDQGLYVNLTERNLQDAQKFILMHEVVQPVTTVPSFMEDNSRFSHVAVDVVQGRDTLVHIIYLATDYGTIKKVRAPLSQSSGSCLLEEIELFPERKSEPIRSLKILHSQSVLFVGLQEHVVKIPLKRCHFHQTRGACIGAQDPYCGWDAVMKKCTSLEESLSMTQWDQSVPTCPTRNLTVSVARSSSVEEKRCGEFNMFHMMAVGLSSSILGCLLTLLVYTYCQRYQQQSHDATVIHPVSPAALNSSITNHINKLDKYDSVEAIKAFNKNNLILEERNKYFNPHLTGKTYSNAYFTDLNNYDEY

Measured: binding

B1: sema domain of PlexA2 fused to Fc (PlexA2^SD-Fc) (Fc fusion, UniProt P70207 35-508)
chain: MPQYSTFHSENRDWTFNHLTVHRRTGAVYVGAINRVYKLTGNLTIQVAHKTGPEEDNKACYPPLIVQPCSEVLTLTNNVNKLLIIDYSENRLLACGSLYQGVCKLLRLDDLFILVEPSHKKEHYLSSVNKTGTMYGVIVRSEGEDGKLFIGTAVDGKQDYFPTLSSRKLPRDPESSAMLDYELHSDFVSSLIKIPSDTLALVSHFDIFYIYGFASGGFVYFLTVQPETPDGMAINSAGDLFYTSRIVRLCKDDPKFHSYVSLPFGCTRAGVEYRLLQAAYLAKPGEALAQAFNISSDEDVLFAIFSKGQKQYHHPPDDSALCAFPIRAINLQIKERLQSCYHGEGNLELNWLLGKDVQCTKAPVPIDDNFCGLDINQPLGGSTPVEGLTLYTTSRDRLTSVASYVYNGYSVVFVGTKSGKLKKIRADGPPHGGVQYEMVSVFKDGSPILRDMAFSINQLYLYVMSERQVTRVPV
binds: [1] | Sema6A | [2]
